In the first series the test system is T. gondii RH-2 F tachyzoites. Nature of the series: Five-day growth inhibition assay (tachyzoite growth, colorimetric).
Details: not given
The format is cell-based, Toxoplasma gondii. On the procedure: Using published methods[8]^,[19], all of the prepared N-substituted thiazolidinones derivatives were evaluated in vitro for (i) host cell cytotoxicity as well as for the ability to inhibit tachyzoite growth over a period of 5 days (Table 1), for (ii) the ability to inhibit tachyzoite invasion of host cells (Figure 1), and for (iii) the ability to inhibit intracellular tachyzoite replication (Figure 2).
Compounds were tested for the ability to inhibit in vitro tachyzoite (T. gondii RH-2 F (50839); ATCC, VA) and human foreskin fibroblast (HFF; ATCC) growth for 120 h using a published colorimetric assay[8]^,[19]. Stock solutions of all compounds were 10 mM in DMSO. Serial 0.5 log10 dilutions (320–0.032 μM) of each compound were tested. Data from three separate experiments were analysed and the IC50, IC90, and TD50 calculated using Calcusyn software (Biosoft, Cambridge, UK). The therapeutic index (TI), a measure of specific anti-T. gondii activity, was calculated with the formula shown under Table 1.
We explored the chemical space and the influence on the biological activity of different groups (substituted aromatic and bicyclic rings) at the lactam NH of the core nucleus. […] In the five-day growth inhibition assay, compounds were added only once, just before addition of tachyzoites, and thus were present for multiple cycles, up to 20, of parasite replication.
With `Nc1ccc(S(=O)(=O)Nc2ncccn2)cc1` [Sulfadiazine, reference compound], the “TI, therapeutic index, TD50/IC50” value is reported as 7.

Still in this series, the particulars now being: When TD50 ≥320 TI = 320/IC50.
For `CC(=NN=C1SCC(=O)N1Cc1cccc([N+](=O)[O-])c1)c1cccs1` [Compound 5, 3-(3-Nitrobenzyl)-2-((1-(thiophen-2-yl)ethylidene)hydrazono)thiazolidin-4-one], the “TI, therapeutic index, TD50/IC50” value is listed as 6.

For the molecule `CC(=NN=C1SCC(=O)N1Cc1ccc([N+](=O)[O-])cc1)c1ccc[cH-]1.[Fe+2].c1cc[cH-]c1` [Compound 9, 3-(4-Nitrobenzyl)-2-((1-(ferrocen-2-yl)ethylidene)hydrazono)thiazolidin-4-one], the “TI, therapeutic index, TD50/IC50” value turned out to be 3. On the same count and under the same terms, the same measure for `CCCCC(CC)=NN=C1SCC(=O)N1Cc1ccc(F)cc1` [Compound 16, 3–(4-Fluorobenzyl)-2-((heptan-3-ylidene)hydrazono)thiazolidin-4-one]: 7; for `CC(=NN=C1SCC(=O)N1Cc1cccc(Cl)c1)c1ccc[cH-]1.[Fe+2].c1cc[cH-]c1` [Compound 24, 3-(3-Chlorobenzyl)-2-((1-(ferrocen-2-yl)ethylidene)hydrazono)thiazolidin-4-one]: 40; for `CC(=NN=C1SCC(=O)N1Cc1ccccc1F)c1ccc[cH-]1.[Fe+2].c1cc[cH-]c1` [Compound 12, 3-(2-Fluorobenzyl)-2-((1-(ferrocen-2-yl)ethylidene)hydrazono)thiazolidin-4-one]: 19. For `CC(=NN=C1SCC(=O)N1Cc1ccccc1[N+](=O)[O-])c1ccc[cH-]1.[Fe+2].c1cc[cH-]c1` [Compound 3, 3-(2-Nitrobenzyl)-2-((1-(ferrocen-2-yl)ethylidene)hydrazono)thiazolidin-4-one], the “TI, therapeutic index, TD50/IC50” value was found to be 21. On the same count and under the same terms, the same measure for `CC(=NN=C1SCC(=O)N1Cc1cccc2ccccc12)c1ccc[cH-]1.[Fe+2].c1cc[cH-]c1` [Compound 30, 3-(Naphthalen-1-ylmethyl)-2-((1-(ferrocen-2-yl)ethylidene)hydrazono)thiazolidin-4-one]: 64; for `CC(=NN=C1SCC(=O)N1Cc1ccc(F)cc1)c1ccc[cH-]1.[Fe+2].c1cc[cH-]c1` [Compound 18, 3-(4-Fluorobenzyl)-2-((1-(ferrocen-2-yl)ethylidene)hydrazono)thiazolidin-4-one]: 53; for `CCCCC(CC)=NN=C1SCC(=O)N1Cc1ccccc1[N+](=O)[O-]` [Compound 1, 2-((Heptan-3-ylidene)hydrazono)-3-(2-nitrobenzyl)thiazolidin-4-one]: 12.

Take `CC(=NN=C1SCC(=O)N1CN1C(=O)c2ccccc2C1=O)c1ccc[cH-]1.[Fe+2].c1cc[cH-]c1` [Compound 33, 2-((4-Oxo-2-((1-(ferrocen-2-yl)ethylidene)hydrazono)thiazolidin-3-yl)methyl)isoindoline-1,3-dione]: the “TI, therapeutic index, TD50/IC50” value stood at 2. In the case of `CC(=NN=C1SCC(=O)N1Cc1ccc(Cl)cc1)c1cccs1` [Compound 26, 3-(4-Chlorobenzyl)-2-((1-(thiophen-2-yl)ethylidene)hydrazono)thiazolidin-4-one], the “TI, therapeutic index, TD50/IC50” value is 4. On the same count and under the same terms, the same measure for `CCCCC(CC)=NN=C1SCC(=O)N1Cc1cccc(F)c1` [Compound 13, 3-(3-Fluorobenzyl)-2-((heptan-3-ylidene)hydrazono)thiazolidin-4-one]: 14. For the molecule `CCCCC(CC)=NN=C1SCC(=O)N1Cc1cccc(Cl)c1` [Compound 22, 3-(3-Chlorobenzyl)-2-((heptan-3-ylidene)hydrazono)thiazolidin-4-one], the “TI, therapeutic index, TD50/IC50” value is 9.

Take `CC(=NN=C1SCC(=O)N1Cc1cccc(Cl)c1)c1cccs1` [Compound 23, 3-(3-Chlorobenzyl)-2-((1-(thiophen-2-yl)ethylidene)hydrazono)thiazolidin-4-one]: the “TI, therapeutic index, TD50/IC50” value is 3. Regarding `CC(=NN=C1SCC(=O)N1Cc1cccc(F)c1)c1ccc[cH-]1.[Fe+2].c1cc[cH-]c1` [Compound 15, 3-(3-Fluorobenzyl)-2-((1-(ferrocen-2-yl)ethylidene)hydrazono)thiazolidin-4-one], the “TI, therapeutic index, TD50/IC50” value turned out to be 40. Same read-out and setting: the same measure for `CCCCC(CC)=NN=C1SCC(=O)N1Cc1ccc(Cl)cc1` [Compound 25, 3-(4-Chlorobenzyl)-2-((heptan-3-ylidene)hydrazono)thiazolidin-4-one]: 5. Take `CC(=NN=C1SCC(=O)N1Cc1ccccc1Cl)c1cccs1` [Compound 20, 3-(2-Chlorobenzyl)-2-((1-(thiophen-2-yl)ethylidene)hydrazono)thiazolidin-4-one]: the “TI, therapeutic index, TD50/IC50” value came out at 2. Take `CC(=NN=C1SCC(=O)N1Cc1ccccc1F)c1cccs1` [Compound 11, 3-(2-Fluorobenzyl)-2-((1-(thiophen-2-yl)ethylidene)hydrazono)thiazolidin-4-one]: the “TI, therapeutic index, TD50/IC50” value was 3.

On to `CCCCC(CC)=NN=C1SCC(=O)N1Cc1cccc([N+](=O)[O-])c1` [Compound 4, 2-((Heptan-3-ylidene)hydrazono)-3–(3-nitrobenzyl)thiazolidin-4-one], for which the “TI, therapeutic index, TD50/IC50” value was 2. For the molecule `CCCCC(CC)=NN=C1SCC(=O)N1Cc1ccccc1Cl` [Compound 19, 3-(2-Chlorobenzyl)-2-((heptan-3-ylidene)hydrazono)thiazolidin-4-one], the “TI, therapeutic index, TD50/IC50” value is listed as 2. `CC(=NN=C1SCC(=O)N1Cc1cccc(F)c1)c1cccs1` [Compound 14, 3-(3-Fluorobenzyl)-2-((1-(thiophen-2-yl)ethylidene)hydrazono)thiazolidin-4-one]: the “TI, therapeutic index, TD50/IC50” value worked out at 4. The same measure, in the same setting: the same measure for `CCCCC(CC)=NN=C1SCC(=O)N1Cc1cccc2ccccc12` [Compound 28, 2-((Heptan-3-ylidene)hydrazono)-3-(naphthalen-1-ylmethyl)thiazolidin-4-one]: 7; for `CC(=NN=C1SCC(=O)N1Cc1ccccc1[N+](=O)[O-])c1cccs1` [Compound 2, 3-(2-Nitrobenzyl)-2-((1-(thiophen-2-yl)ethylidene)hydrazono)thiazolidin-4-one]: 8.

Regarding `CC(=NN=C1SCC(=O)N1Cc1ccc(Cl)cc1)c1ccc[cH-]1.[Fe+2].c1cc[cH-]c1` [Compound 27, 3-(4-Chlorobenzyl)-2-((1-(ferrocen-2-yl)ethylidene)hydrazono)thiazolidin-4-one], the “TI, therapeutic index, TD50/IC50” value is reported as 32. Still for that read-out and setting: the figure for `CCCCC(CC)=NN=C1SCC(=O)N1Cc1ccc([N+](=O)[O-])cc1` [Compound 7, 2-((Heptan-3-ylidene)hydrazono)-3-(4-nitrobenzyl)thiazolidin-4-one] is 3; for `CCCCC(CC)=NN=C1SCC(=O)N1CN1C(=O)c2ccccc2C1=O` [Compound 31, 2-((2-((Heptan-3-ylidene)hydrazono)-4-oxothiazolidin-3-yl)methyl)isoindoline-1,3-dione] it is 4.

For `CCCCC(CC)=NN=C1SCC(=O)N1Cc1ccccc1F` [Compound 10, 3-(2-Fluorobenzyl)-2-((heptan-3-ylidene)hydrazono)thiazolidin-4-one], the “TI, therapeutic index, TD50/IC50” value is on record as 4. Same read-out and setting: the figure for `CC(=NN=C1SCC(=O)N1Cc1ccc(F)cc1)c1cccs1` [Compound 17, 3-(4-Fluorobenzyl)-2-((1-(thiophen-2-yl)ethylidene)hydrazono)thiazolidin-4-one] is 4; for `CC(=NN=C1SCC(=O)N1Cc1cccc([N+](=O)[O-])c1)c1ccc[cH-]1.[Fe+2].c1cc[cH-]c1` [Compound 6, 3-(3-Nitrobenzyl)-2-((1-(ferrocen-2-yl)ethylidene)hydrazono)thiazolidin-4-one] it is 13.

`CC(=NN=C1SCC(=O)N1Cc1ccccc1Cl)c1ccc[cH-]1.[Fe+2].c1cc[cH-]c1` [Compound 21, 3-(2-Chlorobenzyl)-2-((1-(ferrocen-2-yl)ethylidene)hydrazono)thiazolidin-4-one]: the “TI, therapeutic index, TD50/IC50” value came out at 36.

These data come from PMC6445228, “Synthesis and biological evaluation of anti-Toxoplasma gondii activity of a novel scaffold of thiazolidinone derivatives” (Journal of Enzyme Inhibition and Medicinal Chemistry, 2017).
